Results published in the supplement of paper PMC4604168 (melanoma cell lines).
The list shows a part of the results. Many values rest on one well or one pass, so single values are uncertain.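 Cells were imaged in 1,536-well plates, and nuclei stained with an antibody against cleaved PARP were counted against all DNA-stained nuclei to give the apoptosis fraction. Screening doses were chosen to leave most cells alive, and resting and induced cleaved-PARP levels differ strongly between cell lines.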

Legend:
Experiment in all cases: cleaved PARP positive nuclei fraction relative to DMSO control; melanoma cells; higher = more apoptosis
Conditions in all cases: library dose: low library concentration; 72 h
CBRC034 = test system: CBRC034 (line from a melanoma biopsy)
COLO792 = test system: COLO792
COLO800 = test system: COLO800
COLO829 = test system: COLO829
G361 = test system: G361
IPC-298 = test system: IPC-298
IST-MEL1 = test system: IST-MEL1
LB2518-MEL = test system: LB2518-MEL
LOXIMVI = test system: LOXIMVI
MZ2-MEL = test system: MZ2-MEL
MeWo = test system: MeWo
RPMI7951 = test system: RPMI7951
RVH-421 = test system: RVH-421
SkMel28 = test system: SkMel28
SkMel30 = test system: SkMel30
SkMel5 = test system: SkMel5
UACC257 = test system: UACC257
UACC62 = test system: UACC62

Structure (SMILES) | cleaved PARP positive nuclei fraction (CBRC034) | cleaved PARP positive nuclei fraction (COLO792) | cleaved PARP positive nuclei fraction (COLO800) | cleaved PARP positive nuclei fraction (COLO829) | cleaved PARP positive nuclei fraction (G361) | cleaved PARP positive nuclei fraction (IPC-298) | cleaved PARP positive nuclei fraction (IST-MEL1) | cleaved PARP positive nuclei fraction (LB2518-MEL) | cleaved PARP positive nuclei fraction (LOXIMVI) | cleaved PARP positive nuclei fraction (MZ2-MEL) | cleaved PARP positive nuclei fraction (MeWo) | cleaved PARP positive nuclei fraction (RPMI7951) | cleaved PARP positive nuclei fraction (RVH-421) | cleaved PARP positive nuclei fraction (SkMel28) | cleaved PARP positive nuclei fraction (SkMel30) | cleaved PARP positive nuclei fraction (SkMel5) | cleaved PARP positive nuclei fraction (UACC257) | cleaved PARP positive nuclei fraction (UACC62)
CCc1ccc(CCOc2ccc(CC3SC(=O)NC3=O)cc2)nc1 (configuration not stated) [pioglitazone] + CC(C)CCN1c2nc(Nc3cc(F)c(O)c(F)c3)ncc2N(C)C(=O)C1C [BID1870] (first compound 2 µM, partner dose 0.2 µM) | 105% | 76.8% | 106% | 74.9% | 77.8% | 174% | 49.9% | 90.3% | 34% | 83.8% | 244% | 90.8% | 147% | 159% | 47% | 38.8% | 107% | 50.7%
CCN(CC)CCCCNc1ncc2cc(-c3cc(OC)cc(OC)c3)c(NC(=O)NC(C)(C)C)nc2n1 + c1cc(-c2cnn3cc(-c4ccc(OCCN5CCCCC5)cc4)cnc23)ccn1 [Dorsomorphin] (first compound 0.1 µM, partner dose 0.4 µM) | 49% | 106% | 76.1% | 175% | 142% | 116% | 86.6% | 98.8% | 103% | 128% | 55.6% | 116% | 70.8% | 131% | 115% | 51.5% | 127% | 74.5%
COc1ccc2c(c1)CCC1C2CCC2(C)C(NCCCCCCN3C(=O)C=CC3=O)CCC12 (configuration not stated) + COc1ccc(-c2ccc3c(N4CCOCC4)nc(N4C[C@@H](C)O[C@@H](C)C4)nc3n2)cc1CO [KU0063794] (first compound 0.4 µM, partner dose 0.02 µM) | 66.2% | 97.3% | 106% | 33.7% | 122% | 69% | 47% | 93.3% | 68.3% | 95.7% | 28.1% | 124% | 143% | 54.2% | 46% | 60.4% | 238% | 249%
CCc1ccc(CCOc2ccc(CC3SC(=O)NC3=O)cc2)nc1 (configuration not stated) [pioglitazone] + Oc1nc(-c2ccc(C(F)(F)F)cc2)nc2c1CSCC2 [XAV939] (first compound 2 µM, partner dose 2 µM) | 98.8% | 384% | 102% | 87% | 182% | 38.6% | 85.9% | 87.2% | 76.3% | 29.4% | 54.8% | 167% | 46.5% | 83.7% | 155% | 35.1% | 97.5% | 37.6%
CN(NC(=O)CC(=O)NN(C)C(=S)c1ccccc1)C(=S)c1ccccc1 + Cc1cc([N+](=O)[O-])ccc1NS(=O)(=O)c1cc(Cl)ccc1Cl [FH535] (first compound 0.006 µM, partner dose 1 µM) | 406% | 239% | 266% | 334% | 214% | 50.7% | 124% | 210% | 87.6% | 53.4% | 47.2% | 74.2% | 52.4% | 153% | 26.2% | 91.3% | 108% | 86.2%
COc1cc2c(Oc3ccc4[nH]c(C)cc4c3F)ncnc2cc1OCCCN1CCCC1 [cediranib] + COc1cc(N2CCC(N3CCN(C)CC3)CC2)ccc1Nc1ncc(Cl)c(Nc2ccccc2S(=O)(=O)C(C)C)n1 [NVP-TAE684] (first compound 0.4 µM, partner dose 0.08 µM) | 87.4% | 164% | 205% | 44.5% | 106% | 55.8% | 191% | 166% | 132% | 115% | 121% | 41.8% | 56.7% | 95.1% | 25.5% | 62.4% | 277% | 46.6%
O=C(O)c1ccc(-c2c[nH]c3ncc(-c4ccccc4)cc23)cc1C1CCCC1 + COc1ccc2c(c1)CCC1C2CCC2(C)C(NCCCCCCN3C(=O)C=CC3=O)CCC12 [U73122] (first compound 0.16 µM, partner dose 0.4 µM) | 41.8% | 93.3% | 131% | 81.7% | 42.8% | 115% | 94.5% | 145% | 132% | 81.9% | 106% | 93.2% | 107% | 87.5% | 19.4% | 66.1% | 37.5% | 51.1%
O=C(Nc1ccccc1)c1cc([N+](=O)[O-])ccc1Cl + CC(C)CCN1c2nc(Nc3cc(F)c(O)c(F)c3)ncc2N(C)C(=O)C1C [BID1870] (first compound 2 µM, partner dose 0.2 µM) | 301% | 114% | 198% | 87.1% | 170% | 138% | 191% | 91.4% | 48.3% | 202% | 65.5% | 66.2% | 45.6% | 264% | 34.5% | 95.7% | 240% | 122%
O=S(=O)(c1ccccc1)N(CC(F)(F)F)c1ccc(C(O)(C(F)(F)F)C(F)(F)F)cc1 + O=c1cc(-c2cccc3c2Sc2ccccc2S3)oc(N2CCOCC2)c1 [KU55933] (first compound 1.4 µM, partner dose 1 µM) | 107% | 124% | 49.1% | 118% | 83.1% | 87.7% | 105% | 69.2% | 55.6% | 112% | 56.6% | 86.5% | 80.1% | 124% | 21.3% | 99.5% | 93.3% | 166%
CN(NC(=O)CC(=O)NN(C)C(=S)c1ccccc1)C(=S)c1ccccc1 + CCN(CC)CCCCNc1ncc2cc(-c3cc(OC)cc(OC)c3)c(NC(=O)NC(C)(C)C)nc2n1 [PD173074] (first compound 0.006 µM, partner dose 0.1 µM) | 241% | 190% | 374% | 160% | 104% | 100% | 301% | 211% | 193% | 57.6% | 397% | 77.3% | 64% | 203% | 52.1% | 357% | 201% | 88.4%
CCc1ccc(CCOc2ccc(CC3SC(=O)NC3=O)cc2)nc1 (configuration not stated) [pioglitazone] + COC(=O)c1sccc1S(=O)(=O)Nc1ccc(Nc2ccccc2)cc1OC [GSK0660] (first compound 2 µM, partner dose 1 µM) | 67.7% | 104% | 84.4% | 88.4% | 128% | 84.3% | 41.4% | 267% | 73.9% | 132% | 91.2% | 81.6% | 81.6% | 134% | 18.4% | 54.8% | 258% | 101%
CN(NC(=O)CC(=O)NN(C)C(=S)c1ccccc1)C(=S)c1ccccc1 + O=c1cc(-c2cccc3c2Sc2ccccc2S3)oc(N2CCOCC2)c1 [KU55933] (first compound 0.006 µM, partner dose 1 µM) | 86.5% | 126% | 290% | 128% | 182% | 341% | 344% | 79.9% | 810% | 150% | 57.5% | 17.3% | 77.1% | 231% | 34.6% | 117% | 87.3% | 22.7%
O=C(O)c1ccc(-c2c[nH]c3ncc(-c4ccccc4)cc23)cc1C1CCCC1 + O=C(O)C(=O)Nc1sc2c(c1C(=O)O)CCNC2 [TCS401] (first compound 0.16 µM, partner dose 1.66667 µM) | 103% | 90.5% | 71.3% | 153% | 175% | 158% | 42.4% | 73.9% | 51% | 72.4% | 138% | 164% | 141% | 106% | 24.5% | 29.6% | 256% | 86.5%
NCC(=O)Nc1ccc(-n2nc(C(F)(F)F)cc2-c2ccc3c(ccc4ccccc43)c2)cc1 + COc1ccc2c(c1)CCC1C2CCC2(C)C(NCCCCCCN3C(=O)C=CC3=O)CCC12 [U73122] (first compound 1 µM, partner dose 0.4 µM) | 85.3% | 128% | 74.1% | 137% | 111% | 110% | 132% | 74.3% | 68.8% | 97.6% | 397% | 89.8% | 125% | 225% | 58.5% | 171% | 204% | 89.1%
O=C1NC(=O)/C(=C/c2ccc(-c3ccc(F)cc3O)o2)S1 + O=c1cc(-c2cccc3c2Sc2ccccc2S3)oc(N2CCOCC2)c1 [KU55933] (first compound 1 µM, partner dose 1 µM) | 262% | 126% | 128% | 101% | 144% | 64.6% | 80.2% | 79.7% | 61.2% | 71.5% | 108% | 80.1% | 214% | 119% | 196% | 102% | 67.6% | 108%
N#Cc1c(O)c2c(-c3ccc(-c4ccccc4O)cc3)csc2[nH]c1=O + O=C(O)C(=O)Nc1sc2c(c1C(=O)O)CCNC2 [TCS401] (first compound 2 µM, partner dose 1.66667 µM) | 60.4% | 106% | 108% | 114% | 316% | 41.3% | 81.8% | 70.6% | 36.3% | 186% | 42.7% | 37.2% | 107% | 25.2% | 28.9% | 25.2% | 58% | 93.7%
O=C(O)c1ccc(-c2c[nH]c3ncc(-c4ccccc4)cc23)cc1C1CCCC1 + N#Cc1c(O)c2c(-c3ccc(-c4ccccc4O)cc3)csc2[nH]c1=O [A769662] (first compound 0.16 µM, partner dose 2 µM) | 46.7% | 87.8% | 132% | 82.7% | 65.2% | 51% | 115% | 76.9% | 41.1% | 129% | 36.9% | 45.5% | 56% | 151% | 97.6% | 49.1% | 134% | 124%
CCc1ccc(CCOc2ccc(CC3SC(=O)NC3=O)cc2)nc1 (configuration not stated) [pioglitazone] + O=c1cc(-c2cccc3c2Sc2ccccc2S3)oc(N2CCOCC2)c1 [KU55933] (first compound 2 µM, partner dose 1 µM) | 57.9% | 79.3% | 132% | 95.4% | 52.7% | 28.7% | 43.4% | 399% | 64.2% | 104% | 109% | 176% | 86.9% | 176% | 380% | 122% | 121% | 72.4%
COc1ccc(COc2ccc(Cc3cnc(N)nc3N)cc2OC)cc1 + Cn1cc(/C=C2\C(=O)Nc3cccnc32)c2ccccc21 [GW441756] (first compound 1 µM, partner dose 0.4 µM) | 79.7% | 179% | 37.2% | 176% | 94.2% | 124% | 112% | 73.1% | 28% | 72.6% | 74% | 39.2% | 152% | 174% | 60.1% | 35.4% | 153% | 78.8%

An excerpt from further up, for reference:
Structure (SMILES) | cleaved PARP positive nuclei fraction (CBRC034) | cleaved PARP positive nuclei fraction (COLO792) | cleaved PARP positive nuclei fraction (COLO800) | cleaved PARP positive nuclei fraction (COLO829) | cleaved PARP positive nuclei fraction (G361) | cleaved PARP positive nuclei fraction (IPC-298) | cleaved PARP positive nuclei fraction (IST-MEL1) | cleaved PARP positive nuclei fraction (LB2518-MEL) | cleaved PARP positive nuclei fraction (LOXIMVI) | cleaved PARP positive nuclei fraction (MZ2-MEL) | cleaved PARP positive nuclei fraction (MeWo) | cleaved PARP positive nuclei fraction (RPMI7951) | cleaved PARP positive nuclei fraction (RVH-421) | cleaved PARP positive nuclei fraction (SkMel28) | cleaved PARP positive nuclei fraction (SkMel30) | cleaved PARP positive nuclei fraction (SkMel5) | cleaved PARP positive nuclei fraction (UACC257) | cleaved PARP positive nuclei fraction (UACC62)
CCN(CC)CCCCNc1ncc2cc(-c3cc(OC)cc(OC)c3)c(NC(=O)NC(C)(C)C)nc2n1 + c1cc(-c2cnn3cc(-c4ccc(OCCN5CCCCC5)cc4)cnc23)ccn1 [Dorsomorphin] (first compound 0.1 µM, partner dose 0.4 µM) | 49% | 106% | 76.1% | 175% | 142% | 116% | 86.6% | 98.8% | 103% | 128% | 55.6% | 116% | 70.8% | 131% | 115% | 51.5% | 127% | 74.5%
COc1ccc2c(c1)CCC1C2CCC2(C)C(NCCCCCCN3C(=O)C=CC3=O)CCC12 (configuration not stated) + COc1ccc(-c2ccc3c(N4CCOCC4)nc(N4C[C@@H](C)O[C@@H](C)C4)nc3n2)cc1CO [KU0063794] (first compound 0.4 µM, partner dose 0.02 µM) | 66.2% | 97.3% | 106% | 33.7% | 122% | 69% | 47% | 93.3% | 68.3% | 95.7% | 28.1% | 124% | 143% | 54.2% | 46% | 60.4% | 238% | 249%
